Peptide text beside a SMILES is read from it.
Legend:
male C57BL/6J mice [1] = test: NOR in subchronic ketamine-treated mice (Examples 2 and 3); format: in vivo; settings: mean±S.E.M.
Method: (§1) Three cohorts of male C57BL/6J mice (2½-3 month old, Jackson, Mass., USA), N=40, 45, and 48 were used in Examples 1, 2, 3 respectively. Mice were group housed (five/cage) in a controlled environment held at 21±2° C. and 50±15% relative humidity with a 14:10 h light-dark period (lights on: 05:00 am). All experiments were conducted during the light phase. Food and water were available ad libitum. The mice were habituated to the colony upon arrival for a week, during which time, they were not handled. All experiments were conducted in accordance with Institutional Animal Care and Use Committee of Northwestern University, Chicago.
(§2) Rapastinel was obtained from SAI Life Sciences (India). PCP was a generous gift from National Institute of Drug Abuse. Ketamine was purchased from Sigma Aldrich (St. Louis, Mo.). Lurasidone was provided by Sumitomo Dainippon Pharma Co., Ltd. (Osaka, Japan). Rapastinel, PCP, and ketamine were dissolved in 0.9% sterile saline (Sal). PCP and ketamine were administered intraperitoneally (ip), at a volume of 10 mL/kg body weight. Rapastinel was given intravenously (iv). The dose of rapastinel (1.0 mg/kg) was chosen because it produced optimal enhancement in learning in both young adult and aged rats and in a trace eye blink conditioning task in rabbits. […] The dose for lurasidone (0.1 mg/kg) was chosen based on prior NOR studies in C57BL/6J mice which determined the effective dose of lurasidone to restore NOR in subchronic PCP-treated mice.
For acute drug treatments, rapastinel (1.0 mg/kg, iv), lurasidone (0.1 mg/kg, i.p.) or ketamine (30 mg/kg, ip) were administered 30 min prior to the acquisition trial of the NOR task (described below) to the subchronic ketamine or subchronic PCP-treated animals. For subchronic drug treatments, 7-10 mice/cohort were randomly assigned to Sal, PCP, or ketamine. The Sal-treated mice received 0.9% NaCl; the drug treatment groups received either PCP (10 mg/kg; ip), or ketamine (30 mg/kg; ip) twice daily for 7 days. This was followed by a 7 day washout period during which time, mice were left undisturbed in the home cage until initiation of habituation (see below).
NOR testing in mice was slightly modified from Hashimoto et al (Hashimoto K.; Fujita Y.; Shimizu E.; Iyo M. European Journal of Pharmacology 2005, 519:114-7). […] Similar observations were made when large objects were used. […] It was observed that C57BL/6J mice explored less when the duration of trials were 3 or 5. […] Behavior was recorded on video for blind scoring of object exploration. […] The discrimination index (DI) [(time spent exploring the novel object—time spent exploring the familiar object)/total exploration time] was then calculated for retention trials. […]

male C57BL/6J mice [2] = test: Novel object recognition (NOR), acute drug treatment / acute ketamine-induced deficit (Example 1); format: in vivo; settings: mean±S.E.M.
Method: as §1
as §2, with “mice. […]” for “mice.”
NOR testing in mice was slightly modified from Hashimoto et al (Hashimoto K.; Fujita Y.; Shimizu E.; Iyo M. European Journal of Pharmacology 2005, 519:114-7). […] Behavior was recorded on video for blind scoring of object exploration. […] The discrimination index (DI) [(time spent exploring the novel object—time spent exploring the familiar object)/total exploration time] was then calculated for retention trials. […]

[3] = acute drug plus sal, rapastinel 1.0 mg/kg, ketamine 30 mg/kg

SMILES	total exploration times (acquisition trial+retention trial) (male C57BL/6J mice [1]; Example 2, subchronic ketamine+rapastinel 1.0 mg/kg) [s]	total exploration times (acquisition trial+retention trial) (male C57BL/6J mice [1]; Example 3, subchronic ketamine plus subeffective dose rapastinel (0.3 mg/kg) and/or lurasidone (0.1 mg/kg)) [s]	total exploration times (acquisition trial+retention trial) (male C57BL/6J mice [2]; [3]) [s]	total exploration times (acquisition trial+retention trial) (male C57BL/6J mice [2]; rapastinel 1.0 mg/kg plus acute ketamine 30 mg/kg) [s]	total exploration times (acquisition trial+retention trial) (male C57BL/6J mice [1]; Example 2, subchronic ketamine alone) [s]	total exploration times (acquisition trial+retention trial) (male C57BL/6J mice [1]; Example 3, subchronic ketamine alone) [s]
CC(O)C(N)C(=O)N1CCCC1C(=O)N1CCCC1C(=O)NC(C(N)=O)C(C)O (stereo not shown) [rapastinel, Rapastinel] (H-TPPT-NH2; configuration not given here)	86.2 ± 8.3	73.2 ± 4.7	76.8 ± 3.8	79.2 ± 8.3		
CNC1(c2ccccc2Cl)CCCCC1=O (stereo not shown) [ketamine, Ketamine, reference compound]			82.4 ± 11.0		80.3 ± 7.2	86.3 ± 5.2
